Some of the results follow.
molecular target: T1, OsSMF1 (Oryza sativa, UniProt Q6ZLB0 1-436); assay: protein-binding microarray (RPBM); PBS, 2% BSA, 51.3 ng/ul salmon testes DNA, 50 uM zinc acetate, 200 nM TF, 25 C, 1 h; high values mean tight binding; conditions: protein: recombinant; tags: N-terminal polyhistidine and DsRed monomer fusion (pET32a); chain copies: 2; label: CyDye5-dUTP incorporated in the synthesized complementary strand; 3' TTTTT single-stranded linker to array surface; dsDNA, one strand shown
T1 sequence: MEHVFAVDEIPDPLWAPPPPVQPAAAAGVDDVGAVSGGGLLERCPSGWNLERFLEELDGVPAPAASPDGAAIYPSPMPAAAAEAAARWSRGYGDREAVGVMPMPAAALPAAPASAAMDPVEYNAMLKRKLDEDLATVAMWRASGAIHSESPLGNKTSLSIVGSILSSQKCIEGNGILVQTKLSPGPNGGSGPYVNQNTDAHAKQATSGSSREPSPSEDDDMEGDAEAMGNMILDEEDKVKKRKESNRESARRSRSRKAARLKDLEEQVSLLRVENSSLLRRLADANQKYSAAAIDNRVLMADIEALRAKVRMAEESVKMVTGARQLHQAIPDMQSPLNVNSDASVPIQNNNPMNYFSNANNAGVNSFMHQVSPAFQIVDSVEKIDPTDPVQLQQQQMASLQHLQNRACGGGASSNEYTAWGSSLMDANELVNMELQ
Procedure, shortened: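 Binding signal here means per-feature fluorescence intensity in arbitrary units. The values were read on an Axon 4000B scanner after a custom Agilent array, double-stranded by primer extension with Cy5-dUTP, was incubated with 200 nM protein at 25 °C for 1 h in PBS with 2% BSA, salmon testes DNA and 50 µM zinc acetate, then washed. The proteins were transcription factors with an N-terminal polyhistidine tag and DsRed, expressed in E. coli BL21-CodonPlus and purified on Ni–NTA.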

Row | Sequence | binding signal
1 | CTCCCTAGTCCACAAAACCTAGTGACGCGGCGAAACCCAACGGAGTCACCTAGTGCAG | 5660 fluorescence intensity (a.u.)
2 | CGCCATGGGAGCACTCCCCATCTTGTCCTCTACCGCCGCGCGGAGTCACCTAGTGCAG | 3250 fluorescence intensity (a.u.)
3 | ACAGGGCTCCACGGGCACCCGCGGATGACATCGGTGACCACGGAGTCACCTAGTGCAG | 3210 fluorescence intensity (a.u.)
4 | ATGCAACTTGTAGTGTAGGCTCAGAGCAGGCAAATAATTTCGGAGTCACCTAGTGCAG | 3750 fluorescence intensity (a.u.)
5 | AAATTCACAAATACCATACTGTAACATGTCACAGAGGTTGCGGAGTCACCTAGTGCAG | 3210 fluorescence intensity (a.u.)
6 | AACATAACCTATGCATGACTCATGCATCTGTGCTCCCCTACGGAGTCACCTAGTGCAG | 15200 fluorescence intensity (a.u.)
7 | ACTCGAAAGTGTGCCTCTTTATCCACCCGTTGCAGCGTTGCGGAGTCACCTAGTGCAG | 3330 fluorescence intensity (a.u.)
8 | ATTACGCAGTGAGCCCACATCCAAAGCCCACGACGAACAACGGAGTCACCTAGTGCAG | 4010 fluorescence intensity (a.u.)
9 | ACTTCCCCTTTCTTTTGTGACGTGCTATTCAGTTCTCTTTCGGAGTCACCTAGTGCAG | 4390 fluorescence intensity (a.u.)
10 | CAACAGACATCTTCCTGGAGGTGATGTCACAATATCCTTTCGGAGTCACCTAGTGCAG | 7250 fluorescence intensity (a.u.)
11 | AAAAGATTCGTCTCGCAATTTACACGTAACCTGTGTAATTCGGAGTCACCTAGTGCAG | 7350 fluorescence intensity (a.u.)
12 | CGTCCCTCACCACATTCGCTGTCGCCGTCCTCCGCACCCTCGGAGTCACCTAGTGCAG | 3580 fluorescence intensity (a.u.)
13 | CCCAAATATGATAGTACTCCAAGTTCGGCCTTTCGGCCCACGGAGTCACCTAGTGCAG | 14800 fluorescence intensity (a.u.)
14 | GATGCCGAAGAACCCGAGCCCGAGTCAGCGCCACTATCCTCGGAGTCACCTAGTGCAG | 3230 fluorescence intensity (a.u.)
15 | CCTGAGGAGGGAAGGGTCGATGTGGAGGAGCGGCGGCGACCGGAGTCACCTAGTGCAG | 3500 fluorescence intensity (a.u.)
16 | AGGTCGGGCCGGGGAAATATTCCACGTGGATCGGGCCCGGCGGAGTCACCTAGTGCAG | 13800 fluorescence intensity (a.u.)
17 | GCTCCCCGATGATCGCGTCGTCATCCGCTGCAACGACGCCCGGAGTCACCTAGTGCAG | 5320 fluorescence intensity (a.u.)
18 | AGATTCGTTTTCTGCGTTGTGATTTAGCCCATAAAGACCACGGAGTCACCTAGTGCAG | 3940 fluorescence intensity (a.u.)
19 | GCGTCATTCCGTTGGGCCCACCTGTCAGCAACGTAATTAGCGGAGTCACCTAGTGCAG | 3590 fluorescence intensity (a.u.)
20 | CACTACTGCAACATTATTTTGTCATATGTGGCAAGCTAAGCGGAGTCACCTAGTGCAG | 4400 fluorescence intensity (a.u.)
21 | GCTGTGGCTGCGCCTTGTGAACAATACTTGAGCAATAAAGCGGAGTCACCTAGTGCAG | 10100 fluorescence intensity (a.u.)
22 | GCTAACCTCGGTATACCGGTATTGCACTCCTACCCCGCGACGGAGTCACCTAGTGCAG | 17100 fluorescence intensity (a.u.)
23 | CCCAAAGACCCACGCACGATTCGCCACGTCGACGGTGACCCGGAGTCACCTAGTGCAG | 13600 fluorescence intensity (a.u.)

From no. 5 as far as 10, copied from above:
Row | Sequence | binding signal
5 | AAATTCACAAATACCATACTGTAACATGTCACAGAGGTTGCGGAGTCACCTAGTGCAG | 3210 fluorescence intensity (a.u.)
6 | AACATAACCTATGCATGACTCATGCATCTGTGCTCCCCTACGGAGTCACCTAGTGCAG | 15200 fluorescence intensity (a.u.)
7 | ACTCGAAAGTGTGCCTCTTTATCCACCCGTTGCAGCGTTGCGGAGTCACCTAGTGCAG | 3330 fluorescence intensity (a.u.)
8 | ATTACGCAGTGAGCCCACATCCAAAGCCCACGACGAACAACGGAGTCACCTAGTGCAG | 4010 fluorescence intensity (a.u.)
9 | ACTTCCCCTTTCTTTTGTGACGTGCTATTCAGTTCTCTTTCGGAGTCACCTAGTGCAG | 4390 fluorescence intensity (a.u.)
10 | CAACAGACATCTTCCTGGAGGTGATGTCACAATATCCTTTCGGAGTCACCTAGTGCAG | 7250 fluorescence intensity (a.u.)

— article PMC7819943, “Rice protein-binding microarrays: a tool to detect cis-acting elements near promoter regions in rice”
